Results on 6 substances are retold here after patent US20070259824A1.

Sequences of proteins named here, by UniProt entry; tags and fusion partners are left off. A change or cut given only in a name is not applied to a line headed by its entry. Residues count along the entry.
UniProt Q03135: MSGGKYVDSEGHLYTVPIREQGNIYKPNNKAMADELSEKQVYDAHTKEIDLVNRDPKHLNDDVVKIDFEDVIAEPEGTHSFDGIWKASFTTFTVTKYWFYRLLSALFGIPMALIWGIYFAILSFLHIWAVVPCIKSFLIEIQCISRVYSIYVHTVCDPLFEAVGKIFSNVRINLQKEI
endogenous caveolin-1 (THP-1 cell lysate, monocyte lysate): residues 2-178 of Q03135
UniProt P27487: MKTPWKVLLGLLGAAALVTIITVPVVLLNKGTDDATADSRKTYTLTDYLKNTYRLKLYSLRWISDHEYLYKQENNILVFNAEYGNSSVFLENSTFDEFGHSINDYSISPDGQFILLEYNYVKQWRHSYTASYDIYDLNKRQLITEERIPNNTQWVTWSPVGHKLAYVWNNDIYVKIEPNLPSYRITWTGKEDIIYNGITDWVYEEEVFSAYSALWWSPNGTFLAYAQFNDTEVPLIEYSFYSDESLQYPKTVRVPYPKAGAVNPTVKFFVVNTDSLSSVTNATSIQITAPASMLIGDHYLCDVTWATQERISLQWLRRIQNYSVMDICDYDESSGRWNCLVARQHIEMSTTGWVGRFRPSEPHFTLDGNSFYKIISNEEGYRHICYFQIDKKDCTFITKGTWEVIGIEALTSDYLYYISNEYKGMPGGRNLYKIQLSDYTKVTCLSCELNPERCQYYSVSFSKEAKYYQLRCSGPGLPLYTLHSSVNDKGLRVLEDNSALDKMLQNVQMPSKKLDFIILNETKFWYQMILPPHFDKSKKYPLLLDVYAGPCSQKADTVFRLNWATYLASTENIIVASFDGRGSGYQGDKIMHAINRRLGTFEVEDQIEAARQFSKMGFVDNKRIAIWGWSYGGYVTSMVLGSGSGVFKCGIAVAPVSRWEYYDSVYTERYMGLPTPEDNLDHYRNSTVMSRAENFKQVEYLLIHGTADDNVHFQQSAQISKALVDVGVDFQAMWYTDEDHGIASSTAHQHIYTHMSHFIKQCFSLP

Results are given in words; binding and its absence hold for the method and conditions named. For part of these data: In cells and extracts the contact can be indirect. Some entries that bind do so weakly or less than the wild type.

Assay [1] concerns the target endogenous caveolin-1 (THP-1 cell lysate, monocyte lysate) (human) (UniProt Q03135). Kind of assay: co-immunoprecipitation in both directions from THP-1 cells cocultured with sCD26.
For assay [2], the target named is CD26 in J.CD26 cell lysate (Jurkat T cells with stable expression of CD26) (UniProt P27487). In words: GST pull-down from J.CD26 lysate, immunoblot with anti-CD26. A general note: Immunoblotting shows a protein as a band on a membrane.
The target of assay [3] is endogenous caveolin-1 (THP-1 cell lysate, monocyte lysate) (human) (UniProt Q03135). Kind of assay: affinity column of CD26 on ADA-Sepharose with THP-1 lysate, high-salt elution, silver stain, MALDI-TOF MS.
For assay [4] the target is unchanged. In words: GST pull-down from THP-1 lysate, immunoblot with anti-caveolin-1.

Take “recombinant soluble CD26 (rsCD26 wt) (from UniProt P27487 29-766) (enzyme)”: in assay [1], the binding entry is on record as “binds”.

“GST-Cav-1 (1-101) (from UniProt Q03135 1-101)”: the binding entry in assay [2] is reported as “binds”. Consider “CD26 bound on adenosine deaminase-Sepharose beads (CD26-ADA beads) (from UniProt P27487 29-766) (enzyme)”, for which, in assay [3], the binding entry was “binds”.

Consider “GST-Cav-1 wt (from UniProt Q03135 1-178)”, for which the binding entry in assay [2] is given as “binds”.

Take “GST-CD26 D3 (residues 31-429) (from UniProt P27487 31-429)”: the binding result in assay [4] is recorded as “binds”.

As for “GST-Cav-1 (82-178) (from UniProt Q03135 82-178)”, the binding result in assay [2] is recorded as “binds”.
